Laboratory results taken from paper doi:10.1101/2022.12.06.519357.
No constants are given. Whether binding was seen depends on the method and setting. Binding seen in cells or lysates may run through a third protein. Some binding calls cover weakened binding; strength is not graded here.

Amino acid sequences for entries named in this document (tags omitted).
UniProt Q96GY3: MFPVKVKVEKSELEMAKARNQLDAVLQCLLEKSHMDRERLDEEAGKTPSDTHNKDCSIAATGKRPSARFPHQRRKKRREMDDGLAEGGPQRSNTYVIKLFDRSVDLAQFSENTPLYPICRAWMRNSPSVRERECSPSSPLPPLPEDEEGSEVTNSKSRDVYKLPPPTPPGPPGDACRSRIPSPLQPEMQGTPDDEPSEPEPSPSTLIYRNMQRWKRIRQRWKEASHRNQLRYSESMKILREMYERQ
UniProt P10244: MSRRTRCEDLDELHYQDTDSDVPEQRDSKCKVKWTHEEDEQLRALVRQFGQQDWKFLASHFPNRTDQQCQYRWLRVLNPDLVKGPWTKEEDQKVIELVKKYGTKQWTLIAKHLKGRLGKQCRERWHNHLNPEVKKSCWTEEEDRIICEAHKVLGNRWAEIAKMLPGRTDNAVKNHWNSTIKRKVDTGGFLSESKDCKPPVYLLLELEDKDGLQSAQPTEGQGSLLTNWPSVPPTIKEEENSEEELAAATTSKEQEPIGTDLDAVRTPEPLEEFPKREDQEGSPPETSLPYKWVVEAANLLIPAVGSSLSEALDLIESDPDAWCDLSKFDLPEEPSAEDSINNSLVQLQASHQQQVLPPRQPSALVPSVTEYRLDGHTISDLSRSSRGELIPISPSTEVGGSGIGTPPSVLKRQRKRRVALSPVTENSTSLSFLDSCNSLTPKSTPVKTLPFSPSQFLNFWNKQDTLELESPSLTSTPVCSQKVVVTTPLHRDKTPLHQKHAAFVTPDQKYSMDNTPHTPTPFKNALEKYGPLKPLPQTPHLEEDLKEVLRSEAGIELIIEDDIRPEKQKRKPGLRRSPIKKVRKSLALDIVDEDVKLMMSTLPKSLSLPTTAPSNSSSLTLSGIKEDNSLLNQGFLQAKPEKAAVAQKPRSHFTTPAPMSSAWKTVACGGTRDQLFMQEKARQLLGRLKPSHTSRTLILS
UniProt Q5TKA1: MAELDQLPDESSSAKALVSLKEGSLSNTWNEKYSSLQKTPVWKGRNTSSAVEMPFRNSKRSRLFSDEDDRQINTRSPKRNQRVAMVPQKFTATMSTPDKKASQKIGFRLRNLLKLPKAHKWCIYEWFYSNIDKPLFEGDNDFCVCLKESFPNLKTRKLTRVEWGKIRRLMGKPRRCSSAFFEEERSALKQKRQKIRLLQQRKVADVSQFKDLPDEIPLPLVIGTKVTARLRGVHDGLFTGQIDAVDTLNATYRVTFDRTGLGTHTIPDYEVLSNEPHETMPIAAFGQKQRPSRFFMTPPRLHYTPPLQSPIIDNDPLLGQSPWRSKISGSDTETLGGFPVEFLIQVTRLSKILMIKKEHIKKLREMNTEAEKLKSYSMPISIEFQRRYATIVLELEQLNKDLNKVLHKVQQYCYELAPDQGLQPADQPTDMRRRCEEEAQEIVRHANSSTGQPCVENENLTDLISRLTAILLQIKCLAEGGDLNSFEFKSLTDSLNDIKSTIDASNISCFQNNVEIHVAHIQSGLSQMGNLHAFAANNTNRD
UniProt Q08999: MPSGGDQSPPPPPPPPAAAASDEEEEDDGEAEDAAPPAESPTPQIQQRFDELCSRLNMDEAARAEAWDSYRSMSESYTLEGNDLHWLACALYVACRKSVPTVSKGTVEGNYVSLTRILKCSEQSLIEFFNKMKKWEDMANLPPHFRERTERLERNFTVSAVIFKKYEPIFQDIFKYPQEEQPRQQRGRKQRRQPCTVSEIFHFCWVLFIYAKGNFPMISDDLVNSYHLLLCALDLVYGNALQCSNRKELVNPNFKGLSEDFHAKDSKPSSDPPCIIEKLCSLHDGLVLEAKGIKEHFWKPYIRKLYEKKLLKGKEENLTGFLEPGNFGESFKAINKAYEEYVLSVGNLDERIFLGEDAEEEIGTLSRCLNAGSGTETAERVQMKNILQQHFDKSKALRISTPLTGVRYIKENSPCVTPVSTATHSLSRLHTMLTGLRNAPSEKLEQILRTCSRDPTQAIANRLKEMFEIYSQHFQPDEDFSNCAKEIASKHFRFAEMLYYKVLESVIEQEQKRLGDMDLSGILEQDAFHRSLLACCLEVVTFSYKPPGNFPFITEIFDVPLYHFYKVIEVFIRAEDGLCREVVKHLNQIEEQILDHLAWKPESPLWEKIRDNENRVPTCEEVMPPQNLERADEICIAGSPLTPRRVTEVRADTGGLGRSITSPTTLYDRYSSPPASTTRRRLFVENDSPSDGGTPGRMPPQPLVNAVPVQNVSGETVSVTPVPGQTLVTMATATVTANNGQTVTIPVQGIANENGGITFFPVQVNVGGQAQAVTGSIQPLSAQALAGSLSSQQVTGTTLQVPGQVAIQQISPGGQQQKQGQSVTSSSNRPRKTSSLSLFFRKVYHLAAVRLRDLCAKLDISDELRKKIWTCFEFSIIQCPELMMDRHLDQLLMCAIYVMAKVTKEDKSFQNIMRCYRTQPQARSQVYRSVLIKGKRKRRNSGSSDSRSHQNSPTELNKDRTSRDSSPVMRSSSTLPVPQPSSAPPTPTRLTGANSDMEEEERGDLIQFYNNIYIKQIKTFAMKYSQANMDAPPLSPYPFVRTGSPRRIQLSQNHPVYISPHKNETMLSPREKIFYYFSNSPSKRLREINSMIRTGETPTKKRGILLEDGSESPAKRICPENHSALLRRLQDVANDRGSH

molecular target: LIN37 (human (endogenous in SKOV3 and Kuramochi)) (UniProt Q96GY3); experiment: co-IP

binding | Substance
binds | B-MYB (from UniProt P10244 1-700)
binds | LIN9 (from UniProt Q5TKA1 1-542)
binds | p130 (from UniProt Q08999 1-1139)
